Results deposited as PubChem BioAssay AID1224826 (NIAID, 2016)
Assay: 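Knock-downs that raise or lower Tnf reporter signal after endotoxin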 (primary screen). Cell system: RAW264.7 G9 macrophages from mouse bearing reporters for p65 (GFP) and the Tnf promoter (mCherry). Knock-down reagent: siRNA pool against mouse genes, 100 nM. Timing: 16 h of LPS stimulation, after 2 days of siRNA transfection. Challenge: bacterial lipopolysaccharide (Salmonella minnesota R595), 10 ng/ml. Detection: 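Imaged Tnf reporter mCherry in nuclei, minus background, normalised per plate to the median and expressed as robust z-scores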. Scale: Tnf reporter robust z-score: higher = stronger Tnf promoter reporter signal after LPS. Rule for the call: 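a well counts as active at a score of -1.3 or below (Tlr4 knock-down control median) or above 3 (raised signal); controls and wells holding fewer than 50 cells are excluded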. Meaning of the calls: active = Tnf reporter clearly lowered or raised; inactive = no clear change in Tnf reporter.
Here is an unselected part of about 17,000 deposited reagents. Over the whole deposit, about 1,110 (6.6%) were called active. 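Active means lowered or raised reporter signal; replicate intensities are raw and not normalised per plate.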 Entries without a mark were called inactive. Not all columns of the deposit are shown.

target gene | Tnf reporter robust z-score | fewer than 50 cells in well
Kcnf1 | 0.29 | enough cells in well
Actr3 | 0.31 | enough cells in well
Ptpmt1 | 0.75 | enough cells in well
Prkd2 | -1.47 (active) | enough cells in well
Psmc6 | – | fewer than 50 cells per well; well left out of calls
Mmrn2 | 1.15 | enough cells in well
Slc18a2 | 0.36 | enough cells in well
Mamdc2 | 1.85 | enough cells in well
Afmid | -0.62 | enough cells in well
Clec2h | 0.71 | enough cells in well
Dcn | -0.84 | enough cells in well
Fgd6 | 0.88 | enough cells in well
Huwe1 | 0.17 | enough cells in well
Gga3 | 1.72 | enough cells in well
BC107364 | 2.69 | enough cells in well
St6gal2 | -0.39 | enough cells in well
Ropn1 | 1.55 | enough cells in well
Efhb | 1.38 | enough cells in well
Gatad2a | 0.42 | enough cells in well
Nexn | -0.44 | enough cells in well
Coa3 | -0.41 | enough cells in well
Foxb2 | 1.39 | enough cells in well
Wasf2 | 0.39 | enough cells in well
Rps19bp1 | – | fewer than 50 cells per well; well left out of calls

Hits, among the entries above:
target gene | Tnf reporter robust z-score | fewer than 50 cells in well
Prkd2 | -1.47 (active) | enough cells in well
